The list shows only some results of the screen, not a fair sample: it is rich in T/C values a quarter to a half above the control, in often repeated tests (any T/C) and in doses without a T/C. Further doses and runs are listed elsewhere. T/C: endpoint of the treated group in % of that of the vehicle group. Some entries give survivors of the animals treated and no T/C: the source holds a T/C of zero for them, seemingly a mark for toxic or unscored doses. Some survivor counts are full or nearly so, which does not show that the dose was tolerated: the source hardly ever lists a survival T/C far under the control, and the zero likely stands for such cases as well. Survivors were counted at the toxicity check, usually on the fifth day, unless a day is given; later deaths do not show. Schedules are NCI's codes, read here as Q, the interval in days (D) or hours (H), X, the number of doses. Where survival is the endpoint, the PubChem record calls one and a half times the control and up active, and a quarter to a half above the control has no call in these data; cut-offs in other NCI protocols can differ. Some T/C values carry the count of animals alive at the toxicity check (mostly the fifth day); without a count, all were alive then.
Tested on: L1210 leukemia ip in BDF1 mice, survival T/C
Assay: NCI In Vivo Anticancer Drug Screen. Data for tumor model L1210 Leukemia (intraperitoneal) in B6D2F1 (BDF1) mice
Details: higher T/C = longer survival
[1] = T/C endpoint: mean survival time, dose: 20.0 mg/kg/injection, schedule: Q01DX001 (ip), vehicle: saline
[2] = T/C endpoint: mean survival time, dose: 40.0 mg/kg/injection, schedule: Q01DX001 (ip), vehicle: saline
[3] = T/C endpoint: mean survival time, dose: 75.0 mg/kg/injection, schedule: Q01DX001 (ip), vehicle: saline
[4] = T/C endpoint: mean survival time, dose: 80.0 mg/kg/injection, schedule: Q01DX001 (ip), vehicle: saline
[5] = T/C endpoint: mean survival time, dose: 150.0 mg/kg/injection, schedule: Q01DX001 (ip), vehicle: saline
[6] = T/C endpoint: mean survival time, dose: 300.0 mg/kg/injection, schedule: Q01DX001 (ip), vehicle: saline
[7] = T/C endpoint: mean survival time, dose: 400.0 mg/kg/injection, schedule: Q04DX002 (ip), vehicle: saline with Tween-80
[8] = T/C endpoint: mean survival time, dose: 200.0 mg/kg/injection, schedule: Q04DX003 (ip), vehicle: Klucel (hydroxypropylcellulose) (HPC)
[9] = T/C endpoint: mean survival time, dose: 100.0 mg/kg/injection, schedule: Q04DX003 (ip), vehicle: Klucel (hydroxypropylcellulose) (HPC)
[10] = T/C endpoint: mean survival time, dose: 400.0 mg/kg/injection, schedule: Q04DX003 (ip), vehicle: Klucel (hydroxypropylcellulose) (HPC)
[11] = T/C endpoint: mean survival time, dose: 400.0 mg/kg/injection, schedule: Q01DX009 (ip), vehicle: saline with Tween-80
[12] = T/C endpoint: mean survival time, dose: 200.0 mg/kg/injection, schedule: Q01DX001 (ip), vehicle: saline
[13] = T/C endpoint: mean survival time, dose: 400.0 mg/kg/injection, schedule: Q01DX001 (ip), vehicle: saline

N=c1ccn2c(n1)OC1C(OP(=O)(O)O)C(CO)OC12 (stereo not given)
T/C (T/C endpoint: mean survival time, dose: 10.0 mg/kg/injection, schedule: Q01DX009 (ip), vehicle: saline): 128 % of control
T/C (T/C endpoint: mean survival time, dose: 20.0 mg/kg/injection, schedule: Q01DX009 (ip), vehicle: saline): 149 % of control
T/C (T/C endpoint: median survival time, dose: 12.5 mg/kg/injection, schedule: Q03HX024 (oral), vehicle: water): 127 % of control
T/C (T/C endpoint: median survival time, dose: 25.0 mg/kg/injection, schedule: Q01DX009 (oral), vehicle: water): 133 % of control
T/C (T/C endpoint: median survival time, dose: 50.0 mg/kg/injection, schedule: Q03HX008 (oral), vehicle: water): 138 % of control
T/C (T/C endpoint: median survival time, dose: 100.0 mg/kg/injection, schedule: Q01DX009 (oral), vehicle: saline): 127 % of control
T/C (T/C endpoint: median survival time, dose: 100.0 mg/kg/injection, schedule: Q03HX008 (oral), vehicle: water): 144 % of control
T/C (T/C endpoint: median survival time, dose: 200.0 mg/kg/injection, schedule: Q01DX009 (oral), vehicle: saline): 145 % of control
T/C (T/C endpoint: median survival time, dose: 800.0 mg/kg/injection, schedule: Q01DX001 (oral), vehicle: saline): 127 % of control
T/C (T/C endpoint: median survival time, dose: 800.0 mg/kg/injection, schedule: Q01DX001 (oral), vehicle: water): 127 % of control
survivor count (T/C endpoint: median survival time, dose: 800.0 mg/kg/injection, schedule: Q03HX008 (oral), vehicle: water): 5 of 8
T/C (T/C endpoint: median survival time, dose: 1600.0 mg/kg/injection, schedule: Q01DX001 (oral), vehicle: water): 144 % of control
survivor count (T/C endpoint: median survival time, dose: 1600.0 mg/kg/injection, schedule: Q01DX009 (oral), vehicle: saline): 10 of 10
T/C (T/C endpoint: median survival time, dose: 3200.0 mg/kg/injection, schedule: Q01DX001 (oral), vehicle: water): 144 % of control [7 of 8 alive]

CC[P+](C)(CC)c1cccc(OC(=O)NC)c1
survivor count (T/C endpoint: mean survival time, dose: 0.5 mg/kg/injection, schedule: Q01DX001 (ip), vehicle: saline): 0 of 6
survivor count (T/C endpoint: mean survival time, dose: 1.0 mg/kg/injection, schedule: Q01DX001 (ip), vehicle: saline): 0 of 6
survivor count (T/C endpoint: mean survival time, dose: 2.0 mg/kg/injection, schedule: Q01DX001 (ip), vehicle: saline): 0 of 6
survivor count (T/C endpoint: mean survival time, dose: 4.0 mg/kg/injection, schedule: Q01DX001 (ip), vehicle: saline): 0 of 6
survivor count (T/C endpoint: mean survival time, dose: 5.0 mg/kg/injection, schedule: Q01DX001 (ip), vehicle: saline): 0 of 6
survivor count (T/C endpoint: mean survival time, dose: 8.0 mg/kg/injection, schedule: Q01DX001 (ip), vehicle: saline): 0 of 6
survivor count (T/C endpoint: mean survival time, dose: 10.0 mg/kg/injection, schedule: Q01DX001 (ip), vehicle: saline): 0 of 6
survivor count [1]: 0 of 6
survivor count [2]: 0 of 6
survivor count [3]: 0 of 6
survivor count [4]: 0 of 6
survivor count [5]: 0 of 6
survivor count [6]: 0 of 6

Cc1cc(Cl)c(Cl)cc1NC(=O)Nc1ccccc1F
survivor count (T/C endpoint: mean survival time, dose: 200.0 mg/kg/injection, schedule: Q01DX009 (ip), vehicle: other): 5 of 6

CC(C)OP(=O)(OC=C(Cl)Cl)OC(C)C
survivor count [6]: 3 of 6

Clc1ccc(CC[PH+]2CC=CC2)cc1.Clc1ccc(CC[PH+]2CC=CC2)cc1.[Cl][Ni][Cl]
T/C (T/C endpoint: mean survival time, dose: 200.0 mg/kg/injection, schedule: Q04DX002 (ip), vehicle: saline with Tween-80): 127 % of control
survivor count [7]: 0 of 3

CSP(N)(N)=O
survivor count [1]: 0 of 6
survivor count [2]: 0 of 6
survivor count [3]: 0 of 6
survivor count [4]: 0 of 6
survivor count [5]: 0 of 6
survivor count [6]: 0 of 6

Nc1ncnc(NC2CCCCC2)n1
survivor count (T/C endpoint: mean survival time, dose: 100.0 mg/kg/injection, schedule: Q01DX009 (ip), vehicle: Klucel (hydroxypropylcellulose) (HPC)): 1 of 6
survivor count [8]: 0 of 6

C1=CC2C3c4ccccc4C(C2C1)[n+]1ccccc13 (stereo not given)
survivor count [9]: 6 of 6
survivor count [8]: 1 of 6
survivor count [10]: 0 of 6

O=C(Nc1ccccc1)OC(C[N+](=O)[O-])C(Cl)(Cl)Cl (stereo not given)
survivor count (T/C endpoint: mean survival time, dose: 150.0 mg/kg/injection, schedule: Q01DX001 (ip), vehicle: carboxymethylcellulose (CMC)): 2 of 6
survivor count (T/C endpoint: mean survival time, dose: 300.0 mg/kg/injection, schedule: Q01DX001 (ip), vehicle: carboxymethylcellulose (CMC)): 3 of 6

Oc1cc2c3c(c1)-c1c(ccc(O)c1O)CC3NCC2 (stereo not given)
survivor count (T/C endpoint: mean survival time, dose: 100.0 mg/kg/injection, schedule: Q04DX003 (ip), vehicle: DMSO): 1 of 6

CN1CCN(c2ccc([N+](=O)[O-])c3no[n+]([O-])c23)CC1
survivor count (T/C endpoint: mean survival time, dose: 100.0 mg/kg/injection, schedule: Q04DX002 (ip), vehicle: Klucel (hydroxypropylcellulose) (HPC)): 3 of 3
survivor count (T/C endpoint: mean survival time, dose: 200.0 mg/kg/injection, schedule: Q04DX002 (ip), vehicle: Klucel (hydroxypropylcellulose) (HPC)): 1 of 3
survivor count (T/C endpoint: mean survival time, dose: 400.0 mg/kg/injection, schedule: Q04DX002 (ip), vehicle: Klucel (hydroxypropylcellulose) (HPC)): 0 of 3

O=C(O)C(Br)C(Br)C(=O)Nc1cccc2ccccc12 (stereo not given)
survivor count (T/C endpoint: mean survival time, dose: 200.0 mg/kg/injection, schedule: Q01DX009 (ip), vehicle: saline with Tween-80): 1 of 6
survivor count [11]: 0 of 6

Nc1nc(N)c2c(n1)SCC(c1ccc(Cl)cc1)=N2
survivor count (T/C endpoint: mean survival time, dose: 300.0 mg/kg/injection, schedule: Q01DX001 (ip), vehicle: other): 2 of 6

Cc1ccc(S(=O)(=O)[O][Sn-]([CH2]c2ccccc2)([CH2]c2ccccc2)[CH2]c2ccccc2)cc1
survivor count (T/C endpoint: mean survival time, dose: 200.0 mg/kg/injection, schedule: Q01DX009 (ip), vehicle: olive oil, sesame oil, peanut oil): 0 of 3
survivor count (T/C endpoint: mean survival time, dose: 400.0 mg/kg/injection, schedule: Q04DX002 (ip), vehicle: alcohol): 3 of 3

Cc1cccc2ccc[n+](C)c12
survivor count (T/C endpoint: mean survival time, dose: 100.0 mg/kg/injection, schedule: Q01DX001 (ip), vehicle: saline): 0 of 4
survivor count [12]: 2 of 4
survivor count [13]: 1 of 4

O=C(NCCN1CC1)C(=O)NCCN1CC1
T/C (T/C endpoint: mean survival time, dose: 0.7 mg/kg/injection, schedule: Q04DX003 (ip), vehicle: Klucel (hydroxypropylcellulose) (HPC)): 128 % of control
T/C (T/C endpoint: mean survival time, dose: 1.1 mg/kg/injection, schedule: Q04DX003 (ip), vehicle: Klucel (hydroxypropylcellulose) (HPC)): 138 % of control
T/C (T/C endpoint: mean survival time, dose: 1.56 mg/kg/injection, schedule: Q04DX003 (ip), vehicle: saline with Tween-80): 129 % of control
T/C (T/C endpoint: mean survival time, dose: 6.25 mg/kg/injection, schedule: Q04DX003 (ip), vehicle: saline with Tween-80): 148 % of control
T/C (T/C endpoint: mean survival time, dose: 9.0 mg/kg/injection, schedule: Q04DX003 (ip), vehicle: Klucel (hydroxypropylcellulose) (HPC)): 134 % of control
survivor count (T/C endpoint: mean survival time, dose: 12.5 mg/kg/injection, schedule: Q04DX003 (ip), vehicle: saline with Tween-80): 4 of 6
survivor count (T/C endpoint: mean survival time, dose: 25.0 mg/kg/injection, schedule: Q04DX003 (ip), vehicle: saline with Tween-80): 1 of 6
survivor count [9]: 0 of 6
survivor count [8]: 0 of 6
survivor count [10]: 0 of 6

CC(C)CNc1ccc(S(=O)(=O)c2ccc(NCC(C)C)c([N+](=O)[O-])c2)cc1[N+](=O)[O-]
survivor count (T/C endpoint: mean survival time, dose: 50.0 mg/kg/injection, schedule: Q01DX009 (ip), vehicle: DMSO): 1 of 3
survivor count (T/C endpoint: mean survival time, dose: 100.0 mg/kg/injection, schedule: Q01DX005 (ip), vehicle: DMSO): 3 of 3
survivor count (T/C endpoint: mean survival time, dose: 100.0 mg/kg/injection, schedule: Q01DX009 (ip), vehicle: DMSO): 1 of 3
survivor count (T/C endpoint: mean survival time, dose: 200.0 mg/kg/injection, schedule: Q01DX005 (ip), vehicle: DMSO): 2 of 3
survivor count (T/C endpoint: mean survival time, dose: 400.0 mg/kg/injection, schedule: Q01DX005 (ip), vehicle: DMSO): 3 of 3

O=C1C2CCCC3CCCC(C(=O)N1NC1CCCCC1)C32 (stereo not given)
survivor count [7]: 3 of 3

CCN(CC)C(=O)CCc1ccccc1
survivor count [11]: 0 of 6

Nc1nc2ncc(CNc3ccc(C(=O)NC(CCC(=O)O)C(=O)O)cc3F)nc2c(=O)[nH]1 (stereo not given)
survivor count [12]: 2 of 4
survivor count [13]: 0 of 4

Source: PubChem BioAssay AID248 (DTP/NCI, 2004)
